Measured values published in PMC7136618, “Defective nucleotide-dependent assembly and membrane fusion in Mfn2 CMT2A variants improved by Bax” (Life Science Alliance, 2020).
These are yes or no findings as the source states them, for the method shown. Some binding calls cover weakened binding; strength is not graded here. Sequences can lack the tags named with a protein.

Assays:
[1] = target: T1, Mfn2^C390F with a C-terminal 3×FLAG tag (UniProt Q80U63); assay: native gel or EMSA; BN-PAGE of isolated mitochondria incubated with 2 mM GMPPNP, with or without 1 μM purified recombinant Bax, at 37°C for 30 min before lysis in 1% digitonin; anti-FLAG blot
T1 sequence: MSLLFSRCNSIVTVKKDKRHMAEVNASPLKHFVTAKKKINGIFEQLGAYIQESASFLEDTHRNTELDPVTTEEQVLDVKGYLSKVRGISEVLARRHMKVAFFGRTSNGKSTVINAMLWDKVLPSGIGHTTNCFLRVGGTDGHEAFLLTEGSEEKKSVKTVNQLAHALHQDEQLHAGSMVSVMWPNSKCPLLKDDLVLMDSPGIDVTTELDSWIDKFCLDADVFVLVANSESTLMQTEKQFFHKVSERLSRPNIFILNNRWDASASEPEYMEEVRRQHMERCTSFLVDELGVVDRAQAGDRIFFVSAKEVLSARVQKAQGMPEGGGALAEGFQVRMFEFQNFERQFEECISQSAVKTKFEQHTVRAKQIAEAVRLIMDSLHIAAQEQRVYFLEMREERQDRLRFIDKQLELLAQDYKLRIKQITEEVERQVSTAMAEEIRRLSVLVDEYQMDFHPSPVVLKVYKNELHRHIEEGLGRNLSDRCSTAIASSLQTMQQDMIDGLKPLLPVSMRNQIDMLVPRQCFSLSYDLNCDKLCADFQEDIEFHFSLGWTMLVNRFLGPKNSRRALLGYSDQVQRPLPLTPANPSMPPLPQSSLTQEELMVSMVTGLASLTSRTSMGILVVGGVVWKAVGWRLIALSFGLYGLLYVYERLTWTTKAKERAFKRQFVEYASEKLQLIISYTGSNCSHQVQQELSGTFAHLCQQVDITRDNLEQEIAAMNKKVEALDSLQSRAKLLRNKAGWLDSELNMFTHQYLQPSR

[2] = target: T1, Mfn2^C390F with a C-terminal 3×FLAG tag; assay: native gel or EMSA; BN-PAGE of isolated mitochondria incubated with 2 mM GTP at 37°C for 30 min before lysis in 1% digitonin; anti-FLAG blot

B1: Mfn2^C390F with a C-terminal 3×FLAG tag (natural protein, UniProt Q80U63 1-757, looked up)
chain: MSLLFSRCNSIVTVKKDKRHMAEVNASPLKHFVTAKKKINGIFEQLGAYIQESASFLEDTHRNTELDPVTTEEQVLDVKGYLSKVRGISEVLARRHMKVAFFGRTSNGKSTVINAMLWDKVLPSGIGHTTNCFLRVGGTDGHEAFLLTEGSEEKKSVKTVNQLAHALHQDEQLHAGSMVSVMWPNSKCPLLKDDLVLMDSPGIDVTTELDSWIDKFCLDADVFVLVANSESTLMQTEKQFFHKVSERLSRPNIFILNNRWDASASEPEYMEEVRRQHMERCTSFLVDELGVVDRAQAGDRIFFVSAKEVLSARVQKAQGMPEGGGALAEGFQVRMFEFQNFERQFEECISQSAVKTKFEQHTVRAKQIAEAVRLIMDSLHIAAQEQRVYFLEMREERQDRLRFIDKQLELLAQDYKLRIKQITEEVERQVSTAMAEEIRRLSVLVDEYQMDFHPSPVVLKVYKNELHRHIEEGLGRNLSDRCSTAIASSLQTMQQDMIDGLKPLLPVSMRNQIDMLVPRQCFSLSYDLNCDKLCADFQEDIEFHFSLGWTMLVNRFLGPKNSRRALLGYSDQVQRPLPLTPANPSMPPLPQSSLTQEELMVSMVTGLASLTSRTSMGILVVGGVVWKAVGWRLIALSFGLYGLLYVYERLTWTTKAKERAFKRQFVEYASEKLQLIISYTGSNCSHQVQQELSGTFAHLCQQVDITRDNLEQEIAAMNKKVEALDSLQSRAKLLRNKAGWLDSELNMFTHQYLQPSR
notes: Mitofusin 2 (Mfn2) with the CMT2A-associated substitution C390F; CMT2A-associated (patient) substitution; also called Mfn2-FLAG variant C390F; source: Mfn2-null MEFs, retroviral transduction, clonal population; isolated mitochondria, lysed; not shown: 3×FLAG, C-terminal, kept
For B1, the binding [1] was “binds” and the binding [2] was “binds”.
